This is an account of results in the supplement of paper PMC8732350.

Where “and” joins values, the source holds several entries; their conditions need not be identical. Equal entries are not always repeated. Structures can show the parent of a compound that is named as a salt. ± gives the standard deviation of the averaged measurements. Some of the results follow. This data set is noisy: repeats of one test often differ as much as different tests do.

For this assay, the system named is A549. Nature of the assay: surface PD-L1 immunofluorescence intensity relative to IFN-gamma-only control (ratio); higher = more PD-L1 expression. The settings on record: 10 µM; exposure time 24 h; IFN-gamma 100 ng/mL.
Regarding `C=CCOC(Cn1ccnc1)c1ccc(Cl)cc1Cl` (stereo unspecified) [Enilconazole], the “surface PD-L1 immunofluorescence intensity” value came out at 1.04.
As to `O=C(/C=C/c1ccc(O)c(O)c1)O[C@@H]1C[C@](O)(C(=O)O)C[C@@H](O)[C@H]1O` [Chlorogenic acid], the “surface PD-L1 immunofluorescence intensity” value was determined as 1.11.
The same measure for `C[C@@H]1COC(Nc2ccc3ncnc(Nc4ccc(OCc5nccs5)c(Cl)c4)c3c2)=N1`: 0.982; for `N#C/C(=C\c1ccc(O)c(O)c1)C(=O)NCc1ccccc1`: 1.01 and 0.958; for `N=C(N)NCCN1CCCCCCC1` [Guanethidine sulfate]: 1.06.
The same measure for `C#C[C@]1(O)CC[C@H]2[C@@H]3CCC4=CC(=O)CC[C@@H]4[C@H]3CC[C@@]21CC` [Norgestrel-(-)-D]: 1.08; for `C#C[C@]1(O)CC[C@H]2[C@@H]3CCC4=CC(=O)CC[C@@H]4[C@H]3CC[C@@]21CC` [Levonorgestrel (Levonelle)]: 0.947; for `CC(CN(C)C)CN1c2ccccc2Sc2ccccc21` (stereo unspecified) [Trimeprazine tartrate]: 0.932.
As for `CC1(C)[C@@H](OC(=O)CCC(=O)O)CC[C@]2(C)[C@H]3C(=O)C=C4[C@@H]5C[C@@](C)(C(=O)O)CC[C@]5(C)CC[C@@]4(C)[C@]3(C)CC[C@@H]12` [Carbenoxolone disodium salt], the figure is 0.963; as for `CCCCCCCCCCCCCCCC(=O)C1=C(O)[C@@H](CO)OC1=O`, 1.06; as for `Cc1cc(C)c(S(=O)(=O)Nc2cccc(C(F)(F)F)c2)c(C)c1`, 1.01.
In the case of `CCCOc1ccc(C(=O)OCCN(CC)CC)cc1N` [Proparacaine hydrochloride], the “surface PD-L1 immunofluorescence intensity” value stood at 0.994.
Regarding `COC(=O)Nc1ccc2[nH]cc(CCNC(C)=O)c2c1`, the “surface PD-L1 immunofluorescence intensity” value came to 0.983.
As for `CC(=O)N[C@@H](CSCC=C(C)CCC=C(C)CCC=C(C)C)C(=O)O` [Acetyl-S-farnesyl-L-cysteine], the “surface PD-L1 immunofluorescence intensity” value stood at 1.02.
As for `CC1=C(/C=C/C(C)=C\C=C\C(C)=C\C(=O)O)C(C)(C)CCC1` [9-cis Retinoic acid], the figure is 0.955; as for `CC[C@@H](CO)NCCN[C@@H](CC)CO` [Ethambutol HCl], 0.898.
On to `CC[C@@H](CO)NCCN[C@@H](CC)CO` [Ethambutol dihydrochloride], for which the “surface PD-L1 immunofluorescence intensity” value is 0.86.
The same measure for `CC(CN(C)C)C(C)(O)Cc1ccc(Cl)cc1` (stereo unspecified) [Clobutinol hydrochloride]: 0.996; for `C[C@]1(Cn2ccnn2)[C@H](C(=O)O)N2C(=O)C[C@H]2S1(=O)=O` [Tazobactam]: 0.986 ± 0.11; for `CC(=O)OCC(=O)[C@@]1(OC(C)=O)[C@@H](C)C[C@H]2[C@@H]3C[C@H](F)C4=CC(=O)C=C[C@]4(C)[C@@]3(F)[C@@H](O)C[C@@]21C` [Diflorasone Diacetate]: 0.893.
The same measure for `O=C(NCCN1CCCCC1)c1ccc(I)cc1` [N-[2-(Piperidinylamino)ethyl]-4-iodobenzamide]: 1.14.
As for `CC1=C(/C=C/C(=C/C=C/C(C)=C/C(=O)O)c2ccc(C)cc2)C(C)(C)CCC1`, the figure is 1.03; as for `COc1ccccc1OCC(O)COC(N)=O` (stereo unspecified) [Methocarbamol], 0.989.
In the case of `Nc1ccn([C@@H]2CS[C@H](CO)O2)c(=O)n1` [Lamivudine], the “surface PD-L1 immunofluorescence intensity” value was determined as 1.01.
As for `NC1CCN(c2nc3c(cc2F)c(=O)c(C(=O)O)cn3-c2ccc(F)cc2F)C1` (stereo unspecified) [Tosufloxacin hydrochloride], the figure is 0.986; as for `CCC(=O)Nc1cccc(Oc2nc(Nc3ccc(N4CCN(C)CC4)cc3OC)ncc2Cl)c1`, 0.942; as for `Cn1ccc2cc3c(cc21)CCN3C(=O)Nc1cccnc1`, 0.973.
The same measure for `O=C(/C=C/c1c(C(=O)O)[nH]c2cc(Cl)cc(Cl)c12)Nc1ccccc1` [Gavestinel]: 0.955; for `Clc1cccc2c1CN(C1=NCCN1)C2`: 1.07.
The same measure for `O=C(C[S+]([O-])Cc1ccco1)NC/C=C\COc1cc(CN2CCCCC2)ccn1` (stereo unspecified) [Lafutidine]: 1.13; for `O=[N+]([O-])c1cccc2c[nH]nc12`: 0.939.
With `COc1c(N2CCNC(C)C2)c(F)cc2c(=O)c(C(=O)O)cn(C3CC3)c12` (stereo unspecified) [Gatifloxacin], the “surface PD-L1 immunofluorescence intensity” value came out at 1.1.
As for `O=C(c1ccccc1)c1ccc2n1CCC2C(=O)O` (stereo unspecified) [Ketorolac tromethamine], the “surface PD-L1 immunofluorescence intensity” value stood at 0.987.
The same measure for `CCOC(=O)[C@@](C)(N)Cc1ccc(O)c(O)c1` [Methyldopate hydrochloride]: 0.999; for `CCN(CC)CCCC(C)Nc1nc(C)cc(Nc2ccc3nc(C)cc(N)c3c2)n1` (stereo unspecified): 1.03 ± 0.059.
The same measure for `O=C(Nc1ccccc1Br)N[C@@H]1CCN(c2ccc(C(F)(F)F)cn2)C1`: 0.987; for `COc1ccc(S(=O)(=O)N(CCO)c2ccccc2CN(C)C/C=C/c2ccc(Cl)cc2)cc1` [KN-93 Phosphate]: 1.03; for `CN(CC[C@@H](Oc1ccc(-c2ccccc2)cc1)c1ccc(F)cc1)CC(=O)O` [ALX 5407 hydrochloride]: 0.962.
In the case of `CN(C)CC(c1ccc(O)cc1)C1(O)CCCCC1` (stereo unspecified) [Desvenlafaxine Succinate], the “surface PD-L1 immunofluorescence intensity” value worked out at 1.01.
The same measure for `O=C(NOCC(O)CO)c1cc(Br)c(F)c(F)c1Nc1ccc(I)cc1F` (stereo unspecified): 1; for `c1ccc(CNc2ncnc3nc[nH]c23)cc1` [Aminopurine, 6-benzyl]: 0.908.
As to `O=C(Nc1ccccc1)Nc1ccc(-c2ccc(C(=O)[C@@H]3CCC[C@H]3C(=O)O)cc2)cc1`, the “surface PD-L1 immunofluorescence intensity” value is 1.03.
The same measure for `OC[C@@H](O)[C@@H](O)[C@@H](O)CO` [Ribitol (Adonitol)]: 1.04.
Take `CCN[C@@H]1C[C@H](N)[C@@H](O[C@H]2OC(CN)=CC[C@H]2N)[C@H](O)[C@H]1O[C@H]1OC[C@](C)(O)[C@H](NC)[C@H]1O` [Netilmicin Sulfate]: the “surface PD-L1 immunofluorescence intensity” value is 0.959.
As for `O=C1NC(=O)C(=Cc2ccc(-c3ccc(F)cc3)o2)S1` (stereo in doubt), the figure is 0.983 ± 0.027.
The same measure for `O=C1NC(=O)C(c2ccccc2)(c2ccccc2)N1` [Phenytoin]: 0.866; for `CC(C)(O)c1ccccc1CC[C@@H](SCC1(CC(=O)O)CC1)c1cccc(/C=C/c2ccc3ccc(Cl)cc3n2)c1` [Montelukast]: 1.05.
Take `CC(=O)Oc1cc2c(s1)CCN(C(C(=O)C1CC1)c1ccccc1F)C2` (stereo unspecified) [Prasugrel (Effient)]: the “surface PD-L1 immunofluorescence intensity” value is 0.911.
As for `Cn1cnc([N+](=O)[O-])c1Sc1ncnc2[nH]cnc12` [Azathioprine], the figure is 0.971; as for `Cn1cnc([N+](=O)[O-])c1Sc1ncnc2[nH]cnc12` [Azathioprine (Azasan, Imuran)], 0.998.
The same measure for `CC(C)C(=O)Nc1ccc([N+](=O)[O-])c(C(F)(F)F)c1` [Flutamide]: 0.95.
As for `C/C(=N\NC(=O)C1C(=O)NCC1c1ccccc1)c1cccc(Br)c1` (stereo unspecified), the figure is 0.934; as for `NCCCCCCCCCCNS(=O)(=O)c1cccc2c(Cl)cccc12` [A-7 hydrochloride], 1.04.
Take `CC(=O)OCC[N+](C)(C)C` [Acetylcholine chloride]: the “surface PD-L1 immunofluorescence intensity” value turned out to be 0.838.
As for `N[C@@H](Cc1cc(-c2ccc(Cl)cc2Cl)cc(CP(=O)(O)O)c1O)C(=O)O`, the figure is 1.02; as for `CC1(C)CCC2=C(O1)c1ccccc1C(=O)C2=O`, 0.995.
As for `OCCN1C[C@H](O)[C@@H](O)[C@H](O)[C@H]1CO` [Miglitol (Glyset)], the figure is 0.995; as for `OCCN1C[C@H](O)[C@@H](O)[C@H](O)[C@H]1CO` [Miglitol], 0.954; as for `CCC(=O)NC1CCc2cccc(OC)c2C1` (stereo unspecified), 1.15.
The same measure for `S=C(NCc1ccc2c(c1)OCO2)N1CCN(c2ncnc3c2oc2ccccc23)CC1` [Amuvatinib (MP-470)]: 0.96.
For `Cc1c(CCOc2ccc(C(=O)O)cc2)c2cc(Cl)ccc2n1C(c1ccccc1)c1ccccc1`, the “surface PD-L1 immunofluorescence intensity” value amounted to 1.03.
The same measure for `N[C@@H](CSCCCO)C(=O)O` [Fudosteine]: 1.11; for `C[C@H](CCC(=O)O)[C@H]1CC[C@H]2[C@@H]3CC[C@@H]4C[C@H](O)CC[C@]4(C)[C@H]3CC[C@]12C` [Lithocholic acid]: 0.968 ± 0.02; for `CC(=O)SCC(Cc1ccccc1)C(=O)NCC(=O)OCc1ccccc1` (stereo unspecified) [Racecadotril]: 0.917.
As for `O=C1OC(OC(=O)c2cccnc2Nc2cccc(C(F)(F)F)c2)c2ccccc21` (stereo unspecified) [Talniflumate], the figure is 1.02; as for `COC(=O)C1=C(C)NC(C)=C(C(=O)OC(C)C)C1c1cccc2nonc12` (stereo unspecified) [Isradipine], 0.963 ± 0.037; as for `COc1cc(OC)c(C(=O)CCCCN2CCC3(CC2)NC(=O)NC3=O)cc1NS(=O)(=O)c1ccc(C(F)(F)F)cc1`, 1.08.
Regarding `O=C(O)CCCC[C@@H]1SC[C@@H]2NC(=O)N[C@@H]21` [Biotin], the “surface PD-L1 immunofluorescence intensity” value worked out at 0.981.
The same measure for `O=C(O)CCCC[C@@H]1SC[C@@H]2NC(=O)N[C@@H]21` [Biotin (Vitamin B7)]: 1.01; for `CCOC(=O)Nc1ccc(NCc2ccc(F)cc2)nc1N` [Flupirtine maleate]: 1.02.
As for `COCC(=O)Nc1c(I)c(C(=O)NCC(O)CO)c(I)c(C(=O)N(C)CC(O)CO)c1I` (stereo unspecified) [Iopromide], the figure is 1.05; as for `C[C@@]1(O)CCOC(=O)C1` [Mevalonic-D, L acid lactone], 1.01; as for `CC1COc2c(N3CCN(C)CC3)c(F)cc3c(=O)c(C(=O)O)cn1c23` (stereo unspecified) [Ofloxacin], 0.923.
The same measure for `O=c1[nH]cnc2c1ncn2[C@H]1CC[C@@H](CO)O1` [Didanosine]: 0.902.
For `Fc1ccc([C@@H]2CCNC[C@H]2COc2ccc3c(c2)OCO3)cc1` [Paroxetine Hydrochloride], the “surface PD-L1 immunofluorescence intensity” value was determined as 0.9.
As for `Nc1nc(O)c2ncn(CCC(CO)CO)c2n1` [Penciclovir], the figure is 0.91; as for `NC(CO)C(=O)NNCc1ccc(O)c(O)c1O` (stereo unspecified) [Benserazide hydrochloride], 1.02; as for `Cc1cccc(C(=O)NCN2CCN(c3ccccc3C#N)CC2)c1`, 1.05.
Turning to `CN(C)CCCN1c2ccccc2CCc2ccccc21` [Imipramine hydrochloride], the “surface PD-L1 immunofluorescence intensity” value came out at 0.944.
The same measure for `C[C@H]1COc2c(N3CCN(C)CC3)c(F)cc3c(=O)c(C(=O)O)cn1c23` [Levofloxacin (Levaquin)]: 0.967.
As for `NCCC[C@H](N)CC(=O)N[C@H]1CNC(=O)[C@H]([C@H]2C[C@H](O)NC(N)=N2)NC(=O)/C(=C/NC(N)=O)NC(=O)[C@H](CO)NC(=O)[C@H](CO)NC1=O` [Viomycin sulfate], the figure is 0.978.
